Measurements published in publication PMC11763251.
These are yes or no findings as the source states them, for the method shown. Binding seen in cells or lysates may run through a third protein. Some binding calls cover weakened binding; strength is not graded here.

The chains behind the UniProt entries cited, without tags or fusion partners.
UniProt Q6P5G0: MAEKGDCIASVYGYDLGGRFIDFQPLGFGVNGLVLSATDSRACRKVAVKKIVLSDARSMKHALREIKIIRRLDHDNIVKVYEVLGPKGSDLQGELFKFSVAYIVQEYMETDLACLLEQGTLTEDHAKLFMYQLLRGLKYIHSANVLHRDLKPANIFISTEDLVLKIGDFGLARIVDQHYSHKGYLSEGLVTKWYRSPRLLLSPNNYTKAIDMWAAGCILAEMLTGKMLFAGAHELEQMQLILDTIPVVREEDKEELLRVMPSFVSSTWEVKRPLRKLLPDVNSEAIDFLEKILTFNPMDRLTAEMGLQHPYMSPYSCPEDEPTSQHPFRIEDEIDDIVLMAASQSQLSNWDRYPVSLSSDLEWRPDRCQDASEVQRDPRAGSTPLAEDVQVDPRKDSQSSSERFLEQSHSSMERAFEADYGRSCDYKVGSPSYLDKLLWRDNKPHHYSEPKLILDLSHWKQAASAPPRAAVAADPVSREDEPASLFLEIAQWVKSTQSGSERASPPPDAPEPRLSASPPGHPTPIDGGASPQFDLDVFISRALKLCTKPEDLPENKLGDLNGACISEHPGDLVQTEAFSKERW

Target: T1, IRF4 (mouse (endogenous in splenic B cells)) (UniProt Q64287)
T1 sequence: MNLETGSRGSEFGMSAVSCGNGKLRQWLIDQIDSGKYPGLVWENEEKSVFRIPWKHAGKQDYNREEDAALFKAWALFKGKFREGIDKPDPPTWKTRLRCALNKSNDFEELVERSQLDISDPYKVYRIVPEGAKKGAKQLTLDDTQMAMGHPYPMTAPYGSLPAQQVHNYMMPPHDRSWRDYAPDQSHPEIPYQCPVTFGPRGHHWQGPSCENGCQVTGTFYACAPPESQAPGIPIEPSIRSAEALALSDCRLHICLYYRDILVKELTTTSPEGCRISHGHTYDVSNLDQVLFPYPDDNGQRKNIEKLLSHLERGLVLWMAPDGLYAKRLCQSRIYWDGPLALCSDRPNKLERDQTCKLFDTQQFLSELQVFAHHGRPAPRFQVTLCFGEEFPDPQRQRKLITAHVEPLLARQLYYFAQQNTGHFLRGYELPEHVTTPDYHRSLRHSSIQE
Assay: co-IP; splenic B cell lysates from WT mice incubated with anti-IRF4, anti-MAPK4 or control IgG overnight at 4 °C, then Protein A/G beads; IRF4 and MAPK4 detected in IP and input samples by Western blotting

binding: binds
Substance: MAPK4 (Mitogen-Activated Protein Kinase 4) (from UniProt Q6P5G0 1-583)
